# Measurements reported in PubChem BioAssay AID2322 (Broad Institute, 2010).
# Chains of the proteins cited; added tags and fusions are not shown. Lines headed by an entry give the natural chain unless they say otherwise; changes in a name come on top.
# UniProt Q9BYT3: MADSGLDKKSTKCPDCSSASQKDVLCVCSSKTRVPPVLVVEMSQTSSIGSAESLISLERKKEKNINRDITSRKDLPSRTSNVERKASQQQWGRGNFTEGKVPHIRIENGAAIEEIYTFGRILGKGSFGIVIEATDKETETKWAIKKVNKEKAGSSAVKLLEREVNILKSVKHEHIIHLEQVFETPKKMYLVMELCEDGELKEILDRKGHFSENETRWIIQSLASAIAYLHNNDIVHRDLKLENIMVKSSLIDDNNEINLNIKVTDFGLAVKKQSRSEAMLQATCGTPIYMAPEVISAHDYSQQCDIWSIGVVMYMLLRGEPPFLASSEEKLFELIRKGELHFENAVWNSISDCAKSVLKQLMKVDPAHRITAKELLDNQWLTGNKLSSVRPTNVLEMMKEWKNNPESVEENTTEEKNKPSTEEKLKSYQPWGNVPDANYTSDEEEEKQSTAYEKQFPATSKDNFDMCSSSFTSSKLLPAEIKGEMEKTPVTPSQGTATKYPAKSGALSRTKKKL
# Out of some 27,000 compounds screened, about 120 (0.44%) were called active. Inconclusive means that the source gave no clear call. Such entries were picked first, then a sample of the others. Rule as the data show it: active = inhibition above about 20%; inconclusive = no clear call, values can overlap the other calls; inactive = below that.
# Molecular target: Serine/threonine-protein kinase 33 (Homo sapiens) (UniProt Q9BYT3)
# Assay: STK33 kinase inhibitors, primary screen, biochemical, luminescence, ADP-Glo, MBP substrate (AID 2322)
# Conditions: at 12.5 µM, active compounds read high
row,SMILES,inhibition
1,CN(c1ccc(C(=O)NCc2ccco2)cc1)S(C)(=O)=O,inconclusive: 16.6%
2,CC(C)C[C@H](NC(=O)[C@@H](O)[C@H](N)Cc1ccccc1)C(=O)O,inactive: -6.33%
3,O=C1O[C@H](c2ccccc2)[C@H](c2ccccc2)N2[C@H]1[C@@H](C(=O)N1CCCCCCC1)[C@]1(C(=O)Nc3ccc(C#CC4=CCCCC4)cc31)[C@H]2c1ccc(OCCO)cc1,active: 22.2%
4,Cc1ccc(O)c(C2=Nc3ccccc3N=C(C(F)(F)F)C2)c1,inconclusive: 25%
5,O=C(COc1nc(-c2cccs2)cc(C(F)(F)F)n1)Nc1ccc(Cl)cc1Cl,inactive: 4.64%
6,Cc1c(NC(=O)COc2ccc(Br)cc2)cccc1-c1nc2ccccc2s1,inactive: 1.42%
7,COC1C(OC)N(S(=O)(=O)c2ccc(C)cc2)CCN1S(=O)(=O)c1ccc(C)cc1 (stereo not given),inactive: 2.94%
8,C[N+]1(C)C2CC(OC(=O)[C@@H](CO)c3ccccc3)CC1C1OC12 (stereo not given in full),inconclusive: 9.37%
9,NC(=O)NCC#Cc1ccc2c(c1)[C@]1(C(=O)N2)[C@H](C(=O)N2CCCCCCC2)[C@H]2C(=O)O[C@H](c3ccccc3)[C@H](c3ccccc3)N2[C@@H]1c1ccccc1OCCO,inconclusive: 21.7%
10,CCn1c(SCC(=O)N2c3ccccc3Sc3ccccc32)nnc1-c1cccc(Cl)c1,inconclusive: 19.9%
11,O=c1cc(-c2ccccc2)oc2cc(O)cc(O)c12,active: 33.1%
12,CC(C)n1cnc2c(NCc3ccccc3)nc(NCCO)nc21,active: 35.4%
13,COc1cccc(C(=O)c2oc3ccccc3c2NC(=O)CCc2ccccc2)c1,inconclusive: 14.1%
14,C[C@H](CO)N1C[C@H](C)[C@H](CN(C)Cc2ccc(-c3ccccc3)cc2)Oc2ccc(NC(=O)Cc3cn(C)c4ccccc34)cc2C1=O,inactive: 4.56%
15,Cc1ccc(-n2nnnc2SCC(=O)Nc2c(C)n(C)n(-c3ccccc3)c2=O)cc1,inconclusive: 17.1%
16,COc1ccc(C)cc1N(CC(=O)Nc1ccc(C)c(Cl)c1)S(C)(=O)=O,inactive: 3.43%
17,O=C(COc1ccccc1Cl)Nc1ccccc1C(=O)Nc1ccccc1,inactive: 1.87%
18,O=C(COc1cc(Cl)c(Cl)cc1Cl)Nc1ccccc1C(=O)N1CCCCC1,inconclusive: 15.1%
19,C[C@H]1CN([C@@H](C)CO)C(=O)CCCn2cc(nn2)CO[C@@H]1CN(C)Cc1ccc(Oc2ccccc2)cc1,inconclusive: 14.1%
20,Cc1ccc(F)cc1NC(=O)CSc1nnc(-c2ccccc2Cl)o1,inconclusive: 45.6%
21,COc1ccc2nc(SCC(=O)Nc3cccc([N+](=O)[O-])c3)[nH]c2c1,inconclusive: 18.9%
22,COc1cc(C(=O)Nc2cccc(-c3nc4ncccc4o3)c2)cc(OC)c1OC,active: 30.4%
23,C[C@@H]1CN([C@H](C)CO)C(=O)CCCn2nncc2CO[C@H]1CN(C)C(=O)Nc1ccccc1F,inconclusive: 20.3%
24,Oc1ccc([C@H]2Oc3cc(O)cc(O)c3C[C@H]2O)cc1,inconclusive: 20.9%
25,COc1ccc([Si](C)(C)[C@H]2[C@H](CCO)O[C@@]3(C(=O)N(Cc4ccccc4)c4ccc(N5CCC5=O)cc43)[C@@H]2C)cc1,inconclusive: 19.2%

# Rewritten bar-delimited: part of the list above.
row | SMILES | inhibition
10 | CCn1c(SCC(=O)N2c3ccccc3Sc3ccccc32)nnc1-c1cccc(Cl)c1 | inconclusive: 19.9%
20 | Cc1ccc(F)cc1NC(=O)CSc1nnc(-c2ccccc2Cl)o1 | inconclusive: 45.6%
21 | COc1ccc2nc(SCC(=O)Nc3cccc([N+](=O)[O-])c3)[nH]c2c1 | inconclusive: 18.9%

# (next part)

row,SMILES,inhibition
1,O=[N+]([O-])c1ccccc1/C=C/c1ccncc1,inconclusive: 19.8%
3,CCOC(=O)c1c(CSc2cccc3cccnc23)nc2c3ccccc3ccn12,inconclusive: 12.6%
4,COc1cccc(NC(=O)CSc2nnc(-c3ccc(Cl)cc3)n2-c2cccc(C)c2)c1,inactive: -2.67%
5,COc1c(O)cc2oc(-c3ccc(O[C@@H]4O[C@H](CO)[C@@H](O)[C@H](O)[C@H]4O)cc3)cc(=O)c2c1O,active: 51.4%
6,Cc1nc(SCC(=O)Nc2ccc(C(=O)O)cc2)[nH]c(=O)c1C,inconclusive: 9.81%
7,COC(=O)[C@]1(Cc2ccccc2CN=[N+]=[N-])N=C(c2ccc(OCCCO)cc2)O[C@@H]1c1ccccc1,inconclusive: 15.6%
8,C=C(C(=O)/C=C/C(C)(C)O)C1CC2O[C@]2(C)C(=O)[C@H]1OC(=O)CC(C)C (stereo not given in full),inactive: 3.72%
9,O=C(Nc1cccc(NC(=O)c2ncn[nH]2)c1)c1cccc(Cl)c1,active: 31.8%
10,CCOC(=O)c1c(NC(=O)CN2C(=O)c3ccccc3C2=O)sc(C)c1C,inconclusive: 10.6%
11,COc1c(OC)c(O)c2c(=O)cc(-c3ccc(O)cc3)oc2c1OC,active: 29.3%
12,CC(C)c1ccc(OCC(=O)Nc2cccc3ncccc23)cc1,inactive: 1.77%
13,Cc1ccccc1CN(C)C[C@H]1OCc2cnnn2CCCC(=O)N([C@H](C)CO)C[C@@H]1C,inconclusive: 12.2%
14,COc1ccc([Si](C)(C)[C@@H]2[C@@H](CCO)O[C@]3(C(=O)N(Cc4ccc(N5CCC5=O)cc4)c4ccccc43)[C@H]2C)cc1,inconclusive: 21.6%
15,C[C@H](CO)N1C[C@H](C)[C@H](CN(C)Cc2ccc(Cl)c(Cl)c2)OCc2cnnn2CCCC1=O,inconclusive: 15.1%
16,O=c1[nH]c(SCc2n[nH]c(=S)n2-c2ccccc2)nc2ccccc12,inconclusive: 22.4%
17,COc1ccccc1NC(=O)CSc1nc(Nc2ccccc2)nc(Nc2ccccc2)n1,inactive: 4.59%
18,C[C@@H]1CN([C@@H](C)CO)C(=O)c2cc(NC(=O)NC3CCCCC3)ccc2O[C@@H]1CN(C)S(C)(=O)=O,inconclusive: 19.3%
19,O=C(CN1CCc2ccccc21)Nc1nnc(-c2cccs2)s1,inconclusive: 15%
20,Cc1ccc(NC(=O)C(C)NS(=O)(=O)c2ccc(F)cc2)c(C)c1 (stereo not given),inconclusive: 20.8%
21,O=C(CSCCO)Nc1ccc(F)cc1,inconclusive: 17%
22,Cc1ccc([N+](=O)[O-])cc1NC(=O)CSc1nnnn1C1CC2CCC1C2 (stereo not given),inactive: -0.773%
23,CC(=O)C(C)Sc1ncnc2sc(-c3ccccc3)cc12 (stereo not given),inconclusive: 17.6%
24,COc1ccccc1NC(=O)c1cnc(Nc2nc3ccccc3s2)nc1C,inactive: 0.231%
25,CCOC(=O)c1sc(NC(=O)CSc2nc3c(c(C(F)(F)F)n2)CCCC3)c(C#N)c1C,inactive: -0.357%
